From PubChem BioAssay AID2685 (National Center for Advancing Translational Sciences (NCATS), 2010)
This is one part of the list. These are further read-outs of the screen, such as a control signal, another cell line or another target. No call is given for them. The list favours compounds with an active or inconclusive main result. Words in brackets tell the shape of the fitted curve; partial curves, single points and poor fits give uncertain potencies.

Experiment: qHTS Assay for Lipid Storage Modulators in Drosophila S3 Cells;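 on cell number change: cells counted by Cell Tracker Red CMTPX staining in the red channel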
Conditions: BODIPY lipid droplet fluorescence, 18-24 h; for cell number change: measured here: cell count max response, cells fed with added oleic acid
How it was run: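 Drosophila S3 cells loaded with oleic acid (400 uM, as added) and compounds at several concentrations; lipid droplets imaged by 488-nm laser-scanning cytometry, 500–530 nm intensity and object ratio to cell channel. Percent activity normalized to 20 uM Triacsin C.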

[1] = measured here: cell number channel AC50, cells fed with added oleic acid
[2] = measured here: lipid fluorescence (Fed channel) AC50, cells fed with added oleic acid

Q: With `O=C(/C=C/c1ccc(Cl)cc1)N1CCN(c2ccccc2[N+](=O)[O-])CC1` as the molecule, how does the cell number change read?
A: 39.2%

Q: And the AC50 [1]?
A: 14.6 µM [rising, single point]

Q: With `CCOc1ccc(C(C)=O)cc1Cc1c(O)nc(N)[nH]c1=O` as the molecule, how does the cell number change read?
A: -16.1%

Q: What about the AC50 [2] of the same molecule?
A: 10.3 µM [falling, partial curve]

Q: Which results are given for `CN(C(=O)C12CC3CC(CC(C3)C1)C2)C1(C)CCS(=O)(=O)C1` (configuration not stated)?
A: cell number change: 19.9%; AC50 [1]: 0.82 µM [rising, full curve, poor fit]; AC50 [2]: 0.731 µM [falling, partial curve, poor fit]

Q: What does the source list for `COc1cc([N+](=O)[O-])cc2sc(NC(=O)C(C)(C)C)nc12`?
A: cell number change: -47.8%; AC50 [1]: 20.6 µM [falling, partial curve, poor fit]; AC50 [2]: 23.1 µM [falling, partial curve, poor fit]

Q: Which cell number change does the source give for `Cc1cc([N+](=O)[O-])nn1CCC(=O)NC1CCCCCC1` here?
A: 7.99%

Q: And the AC50 [2]?
A: 0.00517 µM [falling, full curve, poor fit]

Q: With `CC(NC(=O)c1ccccc1Br)c1nnc(SCC(=O)NC2CCCCC2)n1C` (configuration not stated) as the molecule, how does the cell number change read?
A: 3.48%

Q: Which results are given for `O=C(Nc1ccc(Br)cn1)c1cccc(-c2cc3ccccc3oc2=O)c1`?
A: cell number change: -50.8%; AC50 [1]: 16.4 µM [falling, single point]; AC50 [2]: 16.4 µM [falling, single point]

Q: For `CCC(C)NC(=O)Nc1ccc(Br)cc1` (configuration not stated), which cell number change is on record?
A: 8.47%

Q: For `O=C(O)CCNS(=O)(=O)c1ccccc1Br`, which cell number change is on record?
A: -33.5%

Q: Which cell number change does the source give for `COc1ccccc1N1CCN(C(=O)CN(CCc2ccccc2)S(C)(=O)=O)CC1` here?
A: 38.2%

Q: And the AC50 [1]?
A: 8.2 µM [rising, partial curve]

Q: What about the AC50 [2] of the same molecule?
A: 18.4 µM [rising, partial curve]

Q: For `Cc1nn(C2CCS(=O)(=O)C2)c(Cl)c1/C=C/C(=O)OCC(=O)c1cc(C)n(-c2ccc(F)cc2)c1C` (configuration not stated), which cell number change is on record?
A: -5.02%

Q: What about the AC50 [2] of the same molecule?
A: 0.0146 µM [rising, full curve, poor fit]

Q: Which cell number change does the source give for `CN1C(=O)N(c2cccc3ccccc23)C(n2cncn2)C1(C)C` (configuration not stated) here?
A: 35.8%

Q: What about the AC50 [1] of the same molecule?
A: 0.00461 µM [rising, full curve, poor fit]

Q: Which cell number change does the source give for `Cc1ccc(OCc2n[nH]c(=S)n2-c2ccccc2)cc1` here?
A: -12.8%

Q: And the AC50 [1]?
A: 0.731 µM [rising, single point]

Q: What does the source list for `O=C(CSc1n[nH]c(=O)n1-c1cccnc1)N1CCOCC1`?
A: cell number change: 19.3%; AC50 [1]: 5.8 µM [falling, single point]; AC50 [2]: 4.61 µM [falling, single point]

Q: For `C=CCn1c(SCC(=O)Nc2cc(NC(C)=O)ccc2OC)nnc1-c1ccccn1`, which cell number change is on record?
A: -5.55%

Q: For `CC(SC(=S)N1CCOCC1)C(=O)O` (configuration not stated), which cell number change is on record?
A: -15.7%

Q: And the AC50 [2]?
A: 0.164 µM [falling, full curve]

Q: With `CCOCCn1c(=O)c2c(nc3n2CCCN3Cc2ccccc2)n(C)c1=O` as the molecule, how does the cell number change read?
A: -5.63%

Q: For `COc1ccc(C)cc1NC(=S)NNC(=O)c1ccccc1Cl`, which AC50 [1] is on record?
A: 0.411 µM [rising, full curve, poor fit]

Q: Which cell number change does the source give for `COc1ncnc2c1oc1nc(C(C)C)c3c(c12)CC(C)(C)OC3` here?
A: -2.51%

Q: What about the AC50 [2] of the same molecule?
A: 0.651 µM [falling, single point]

Q: Which cell number change does the source give for `CCC/C(=N\NC(=O)c1ccc(OC)c(OC)c1)c1ccccc1` here?
A: -2.57%

Q: For `Cc1cccc(NC(=O)C2CCN(S(=O)(=O)c3ccc4c(c3)OCCO4)CC2)n1`, which cell number change is on record?
A: 144%

Q: What about the AC50 [1] of the same molecule?
A: 0.13 µM [falling, full curve, poor fit]

Q: For `CC(C)=CC1C=C(C)C(C)C2C(=O)NNC(=O)C12` (configuration not stated), which cell number change is on record?
A: 78.9%

Q: And the AC50 [1]?
A: 18.4 µM [rising, partial curve]

Q: And the AC50 [2]?
A: 1.03 µM [rising, full curve]

Q: With `O=c1sc2ccccc2n1CCOc1ccccc1` as the molecule, how does the AC50 [2] read?
A: 8.2 µM [rising, partial curve, poor fit]

Q: Which cell number change does the source give for `O=C(O)c1cccc(COc2ccc(CO)cc2Cl)c1` here?
A: -37.6%

Q: And the AC50 [1]?
A: 3.66 µM [falling, full curve]

Q: What about the AC50 [2] of the same molecule?
A: 5.8 µM [falling, full curve]

Q: For `O=C(CSc1nn(-c2ccc(F)cc2)c(=S)s1)NC1CCS(=O)(=O)C1` (configuration not stated), which cell number change is on record?
A: 117%

Q: What about the AC50 [1] of the same molecule?
A: 20.6 µM [rising, partial curve]

Q: What about the AC50 [2] of the same molecule?
A: 1.84 µM [rising, partial curve]

Q: Which AC50 [2] does the source give for `Cc1cc(C(=O)NNC(=O)NC(C)C)no1` here?
A: 18.4 µM [falling, single point]

Q: For `c1sc2[n+](c1C13CC4CC(CC(C4)C1)C3)CCS2`, which cell number change is on record?
A: -0.115%

Q: What about the AC50 [2] of the same molecule?
A: 0.00461 µM [falling, full curve, poor fit]

Q: With `COc1cc(NS(=O)(=O)c2ccc3c(c2)oc(=O)n3C)cc(OC)c1OC` as the molecule, how does the cell number change read?
A: -16.2%

Q: What about the AC50 [2] of the same molecule?
A: 1.3 µM [falling, full curve]

Q: Which cell number change does the source give for `COc1cc2ccccc2cc1C(=O)N(CCN(C)C)c1nc2ccc(C)cc2s1` here?
A: 5.97%

Q: And the AC50 [2]?
A: 20.6 µM [rising, single point]

Q: With `CN(C)C(CNC(=O)c1ccc2c(=O)n(-c3ccccc3F)c(=S)[nH]c2c1)Cc1ccccc1` (configuration not stated) as the molecule, how does the cell number change read?
A: -25.3%

Q: What about the AC50 [1] of the same molecule?
A: 0.326 µM [falling, full curve, poor fit]

Q: And the AC50 [2]?
A: 0.13 µM [falling, partial curve, poor fit]

Q: What does the source list for `O=C(NC1CCCC1)c1nc2c(nnn2Cc2ccccc2Cl)c(=O)[nH]1`?
A: cell number change: -0.371%; AC50 [2]: 3.26 µM [rising, single point]

Q: For `CCOc1ccc(NC(=O)CN2CCN(Cc3c(F)cccc3F)CC2)cc1`, which cell number change is on record?
A: 38.7%

Q: What about the AC50 [1] of the same molecule?
A: 18.4 µM [rising, single point]

Q: Which results are given for `CCOC(=O)c1cnc2c(C)c(Cl)ccc2c1NCCCN1CCOCC1`?
A: cell number change: 3.28%; AC50 [2]: 29.1 µM [falling, single point]

Q: Which results are given for `O=C(Nc1ccn(Cc2ccccc2F)n1)c1ccc(COc2ccccc2Cl)cc1`?
A: cell number change: -15%; AC50 [2]: 6.51 µM [rising, single point]

Q: What does the source list for `CC1CCCC(C)N1C(=O)Cn1c(SCC(=O)NCc2ccc3c(c2)OCO3)nc2ccccc21` (configuration not stated)?
A: cell number change: 18.4%; AC50 [1]: 0.461 µM [rising, partial curve]; AC50 [2]: 0.58 µM [rising, partial curve]

Q: With `CCOP(=O)(OCC)C(Nc1cccc(C(F)(F)F)c1)c1ccc(F)cc1` (configuration not stated) as the molecule, how does the cell number change read?
A: 18.1%

Q: What about the AC50 [2] of the same molecule?
A: 20.6 µM [rising, partial curve]

Q: For `COc1ccc(-n2c(Cn3nnc4ccccc43)nnc2SCC(=O)O)cc1`, which cell number change is on record?
A: 2.44%

Q: And the AC50 [2]?
A: 0.116 µM [falling, full curve, poor fit]

Q: Which results are given for `CCc1ccc(C2C(C#N)=C(N)SC(N)=C2C#N)s1`?
A: cell number change: -23%; AC50 [2]: 10.3 µM [falling, single point]

Q: Which cell number change does the source give for `NC(=O)c1ncc(C(F)(F)F)cc1Oc1cccc(F)c1` here?
A: -40%

Q: And the AC50 [1]?
A: 25.9 µM [falling, single point]

Q: And the AC50 [2]?
A: 0.0058 µM [falling, full curve]

Q: Which AC50 [1] does the source give for `O=C(CCC(=O)Nc1ccc(F)cc1)N/N=C/c1cccc(Br)c1` here?
A: 0.411 µM [rising, full curve]

Q: And the AC50 [2]?
A: 29.1 µM [falling, single point]

Q: Which results are given for `O=C(O)c1ccc(CSc2nc(-c3ccc(Cl)cc3)cc(C(F)(F)F)n2)cc1`?
A: cell number change: -20.2%; AC50 [2]: 29.1 µM [falling, single point]

Q: With `CC(=O)N/C(=C\c1ccccc1)C(=O)OC(C)C(=O)Nc1ccccc1F` (configuration not stated) as the molecule, how does the cell number change read?
A: 2.98%

Q: What about the AC50 [2] of the same molecule?
A: 7.31 µM [rising, partial curve, poor fit]

Q: Which AC50 [2] does the source give for `N#C/C(=C\c1cccnc1)C(=O)Nc1ccc(S(N)(=O)=O)cc1` here?
A: 29.1 µM [falling, single point]

Q: For `Cn1c(COc2ccc3ccccc3c2)nnc1SCC(N)=O`, which cell number change is on record?
A: 14.5%

Q: With `Nc1ccc(C(=O)O)cc1[N+](=O)[O-]` as the molecule, how does the AC50 [1] read?
A: 3.66 µM [falling, single point]

Q: And the AC50 [2]?
A: 0.00517 µM [falling, full curve, poor fit]

Q: What does the source list for `CCCCOC(=O)C1=C(C)Nc2ncnn2C1c1cc(OC)c(OC)cc1OC` (configuration not stated)?
A: cell number change: -34.5%; AC50 [1]: 0.146 µM [falling, full curve, poor fit]; AC50 [2]: 0.116 µM [falling, full curve, poor fit]

Q: Which cell number change does the source give for `COc1ccc(NC(=O)CSc2nnc3ccc(-c4ccncc4)nn23)cc1` here?
A: 50.1%

Q: What about the AC50 [1] of the same molecule?
A: 3.66 µM [rising, partial curve]

Q: And the AC50 [2]?
A: 10.3 µM [rising, partial curve]

Q: With `Cc1cc(C)c2nc(N(CCN(C)C)C(=O)/C=C/c3cccs3)sc2c1` as the molecule, how does the cell number change read?
A: 5.31%

Q: What about the AC50 [2] of the same molecule?
A: 29.1 µM [falling, single point]

Q: Which results are given for `COc1cc(-c2noc(C3CCCN(S(=O)(=O)c4cccc(Cl)c4)C3)n2)cc(OC)c1OC` (configuration not stated)?
A: cell number change: -31.1%; AC50 [1]: 16.4 µM [falling, single point]

Q: Which cell number change does the source give for `O=C(NCCc1c[nH]c2ccccc12)C1CCN(Cc2ccc(Br)cc2)CC1` here?
A: 14%

Q: And the AC50 [2]?
A: 29.1 µM [rising, single point]

Q: What does the source list for `c1ccc(-c2cnc(-c3cccnc3)o2)cc1`?
A: cell number change: -30.9%; AC50 [1]: 18.4 µM [falling, partial curve]

Q: Which results are given for `COCCNC(=O)/C(C#N)=C/c1ccc(-c2ccc(S(=O)(=O)N3CCOCC3)cc2)o1`?
A: cell number change: 13.4%; AC50 [2]: 6.51 µM [rising, partial curve, poor fit]

Q: For `COc1ccc(/C=C2\SC(=S)N(CC(=O)Nc3nnc(C)s3)C2=O)cc1`, which cell number change is on record?
A: 12.8%

Q: What about the AC50 [2] of the same molecule?
A: 0.651 µM [rising, full curve, poor fit]

Q: Which cell number change does the source give for `O=C(Cc1ccccc1)NNS(=O)(=O)c1ccc(F)cc1` here?
A: 1.01%

Q: And the AC50 [2]?
A: 11.6 µM [rising, partial curve, poor fit]

Q: Which cell number change does the source give for `CCCOc1ccc(C(=O)NC(=S)NCc2cccnc2)cc1` here?
A: 11.1%

Q: What about the AC50 [1] of the same molecule?
A: 2.31 µM [rising, single point]

Q: And the AC50 [2]?
A: 20.6 µM [falling, single point]

Q: Which results are given for `Cc1n[nH]c(=O)c2c(NC(=O)CSc3ncccn3)oc(C)c12`?
A: cell number change: 43.8%; AC50 [1]: 0.366 µM [rising, full curve]; AC50 [2]: 0.58 µM [rising, single point]

Q: For `COc1ccc(-c2noc(CN(C(=O)c3c(-c4ccccc4Cl)noc3C)C(C)C)n2)cc1`, which cell number change is on record?
A: -18.8%
